Among the data in patent US20090123463A1 are binding values, retold here.

Amino acid sequences for entries named in this document (tags omitted). Residues count along the entry.
UniProt P35916, residues 25-1363: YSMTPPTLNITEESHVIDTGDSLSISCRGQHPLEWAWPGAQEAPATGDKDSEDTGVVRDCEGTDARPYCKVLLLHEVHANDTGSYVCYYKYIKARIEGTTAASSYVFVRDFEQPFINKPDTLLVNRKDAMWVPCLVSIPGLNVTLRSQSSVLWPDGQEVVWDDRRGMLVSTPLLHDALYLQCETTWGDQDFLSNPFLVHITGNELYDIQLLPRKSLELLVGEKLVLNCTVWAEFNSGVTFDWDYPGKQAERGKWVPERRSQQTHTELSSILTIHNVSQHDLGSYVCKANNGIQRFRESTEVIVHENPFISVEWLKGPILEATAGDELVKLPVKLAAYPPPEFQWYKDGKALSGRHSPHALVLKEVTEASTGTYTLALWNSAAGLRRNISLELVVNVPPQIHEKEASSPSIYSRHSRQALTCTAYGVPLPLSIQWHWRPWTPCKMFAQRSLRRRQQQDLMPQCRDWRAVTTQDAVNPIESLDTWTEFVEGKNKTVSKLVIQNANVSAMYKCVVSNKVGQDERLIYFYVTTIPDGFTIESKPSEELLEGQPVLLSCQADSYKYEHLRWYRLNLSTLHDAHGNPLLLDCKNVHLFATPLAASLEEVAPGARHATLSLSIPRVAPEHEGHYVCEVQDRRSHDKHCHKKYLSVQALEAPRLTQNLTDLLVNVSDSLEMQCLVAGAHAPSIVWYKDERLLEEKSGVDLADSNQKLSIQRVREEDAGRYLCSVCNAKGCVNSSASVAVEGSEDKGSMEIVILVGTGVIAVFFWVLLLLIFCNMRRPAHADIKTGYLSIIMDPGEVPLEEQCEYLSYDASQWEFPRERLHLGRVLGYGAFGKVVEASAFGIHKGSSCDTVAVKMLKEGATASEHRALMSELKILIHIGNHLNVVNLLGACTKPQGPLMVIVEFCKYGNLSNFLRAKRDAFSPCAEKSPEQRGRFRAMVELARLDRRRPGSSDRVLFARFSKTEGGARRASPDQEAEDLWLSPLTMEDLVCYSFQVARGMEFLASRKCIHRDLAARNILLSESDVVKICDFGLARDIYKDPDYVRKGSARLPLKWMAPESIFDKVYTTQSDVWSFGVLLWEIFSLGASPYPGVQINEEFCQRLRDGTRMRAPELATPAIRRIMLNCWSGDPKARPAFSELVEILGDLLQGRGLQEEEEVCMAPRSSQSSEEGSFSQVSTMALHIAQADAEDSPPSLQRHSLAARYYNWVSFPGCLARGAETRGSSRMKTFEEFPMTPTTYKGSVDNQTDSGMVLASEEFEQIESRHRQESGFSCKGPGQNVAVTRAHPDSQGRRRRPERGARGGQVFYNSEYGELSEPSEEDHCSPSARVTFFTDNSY
UniProt Q05397, residues 693-1052: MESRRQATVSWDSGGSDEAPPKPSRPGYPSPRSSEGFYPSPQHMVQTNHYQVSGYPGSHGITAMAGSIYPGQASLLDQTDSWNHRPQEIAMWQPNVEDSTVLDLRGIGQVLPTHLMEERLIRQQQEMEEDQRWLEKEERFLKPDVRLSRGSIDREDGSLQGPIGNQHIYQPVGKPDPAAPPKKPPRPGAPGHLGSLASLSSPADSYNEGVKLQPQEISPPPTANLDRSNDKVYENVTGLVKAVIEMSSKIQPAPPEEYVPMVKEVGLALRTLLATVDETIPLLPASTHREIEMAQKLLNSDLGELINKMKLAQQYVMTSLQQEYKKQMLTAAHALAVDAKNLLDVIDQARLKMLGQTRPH

These are yes or no findings as the source states them, for the method shown. Some binding calls cover weakened binding; strength is not graded here.

The test deals with VEGFR-3/FLT-4 wild type (UniProt P35916). The test is described as follows: blot of direct binding (FIG. 11).

Turning to “C-terminal domain of focal adhesion kinase (FAK-CD), baculoviral (from UniProt Q05397 693-1052)”, the binding result was “binds”.
